Primary screen of a compound library

Source: ChEMBL document CHEMBL3988442, “University of Dundee, Small-Polar-MMV Screening Library” (2021).

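Whole-cell growth test on Mycobacterium tuberculosis, read after 3 days in glucose-containing 7H9 medium; the read-out is not stated. Compounds at 500 µM. Higher reads as more growth inhibition (inferred: compounds with an IC50 in retests scored well above the rest). About 18,000 compounds were tested under these conditions; 7.9% (about 1,400) showed 50% or more at least once.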

The filed quantity is “Percent Effect” (%).
The controls that fix the scale are not given in the record; negative values are as filed.
The compounds are a random part of those screened.

compound | Percent Effect
Cc1cccc(C)c1NC(=O)CN1CCC(O)CC1 | 4.595%
COc1c(C)cnc(CN(C)C)c1C | 6.642%
CCOC(CC)CNC(=O)c1ccc(CN(C)C)o1 (stereo not shown) | -0.1258%
C[C@H](CO)N(CCCC#N)Cc1ccccc1 | -7.976%
Cn1cccc1C1COCCN1CC1OCCO1 (stereo not shown) | 1.931%
COCC(C)(NCc1ccc(F)cc1)C(=O)OC (stereo not shown) | 5.572%
O=C(c1ccccc1)N1CC(O)C1 | -6.801%
CC(C)CCN1CCN(CC(=O)NC(N)=O)CC1 | -0.8202%
CC(C)Cn1nnnc1SC(C)C#N (stereo not shown) | 5.388%
CNC(=O)CC(C)N(C)C(=O)c1ccc(O)c(OC)c1 (stereo not shown) | 19.57%
COCC1(C(=O)N[C@@H]2CCOC[C@H]2O)CC1 | -3.941%
COC(=O)c1ccc(Cl)c(CN(C)CC(N)=O)c1 | 20.9%
Cc1ccc(CCC(=O)N2CC[C@H](N)C2)c(C)c1 | 24.54%
NC(CO)c1c(F)cccc1F (stereo not shown) | -1.809%
COC(=O)Cn1cc(I)cc(C)c1=O | 14.98%
CCC(CO)(CO)NCC(O)COCc1ccco1 (stereo not shown) | 19.36%
Cn1nc(CN)c2ccccc21 | 31.71%
Cc1noc(C)c1CC(=O)N1CCNCC1 | 2.443%
Cc1nn(C)c(Cl)c1C(=O)NCCCN(C)S(C)(=O)=O | 10.77%
CCOCCCN(C(=O)COC)c1ncccc1Br | 3.877%
Cc1cc(C)nc(NC(=O)c2cc[nH]n2)c1 | 4.689%
COC(CNC(=O)NCC(C)(C)O)c1cccc(Cl)c1 (stereo not shown) | 9.828%
CCOc1ccccc1-n1c(CCN)n[nH]c1=O | 12.01%
COCCNC(=O)C1CCCc2ccccc21 (stereo not shown) | 14.43%
CCOc1cc(CNCCO)c(Cl)cc1OC | 28.98%
COc1cccc(CNC(C)c2nnnn2C2CC2)c1 (stereo not shown) | 8.153%
O=C(c1c[nH]nc1C1CCCNC1)N1CCOCC1 (stereo not shown) | -7.683%
COc1ccc(C2CCCN2CC(N)=O)c(OC)c1 (stereo not shown) | 38.84%
CC(C)n1ccnc1CN(C)CC1COCCO1 (stereo not shown) | 6.969%
Brc1ccc(CN2CCNCC2)nc1 | 13.25%
CCOc1ccc(C(=O)CCN(C)C)cc1 | 105.1%
CCS(=O)(=O)CCNC(=O)c1cccc(CN(C)C)c1 | -3.703%
CC(C)c1nsc(N2CCOCC2C)n1 (stereo not shown) | 16.94%
Cc1ccc(NC(=O)CS(C)(=O)=O)c(C)c1 | 6.851%
COCc1nc(CN2CCCC2c2nccs2)no1 (stereo not shown) | 4.37%
O=S(=O)(CCN1CCCC1)c1ccccc1 | 21.45%
CC(C)C(N)CCN(C)C(=O)CC(F)(F)F (stereo not shown) | -4.46%
CSCC(=O)NCc1ccc(CN2CCCC2)cc1 | 15.35%
O=C(c1ccc(O)nc1)N1CCCCCCC1 | -2.342%
CCc1nn2c(=O)cc(CN3CCOC(C)C3)nc2s1 (stereo not shown) | 16.73%
Cc1nonc1NC(=O)CSc1c[nH]nn1 | 32.87%
CS(=O)(=O)c1ccccc1N1CCCC1 | 38.8%
N#Cc1cc(C#N)c(SCCN2CCCCC2)nc1N | 2.575%
CN(C(=O)c1ccc2c(c1)NC(=O)CS2)C1CCCC1 | 4.228%
CCc1nc(C)sc1CNC(=O)Cn1nc(C)cc1N | -2.843%
O=c1[nH]c(=O)c2ccc(Cl)cc2o1 | 11.22%
CCC(C(=O)N(C)Cc1cc[nH]n1)N1CCCC1 (stereo not shown) | 4.839%
CCN(C(=O)c1coc(S(=O)(=O)NC)c1)C1CC1 | 10.24%
CC(=O)NC(CC(=O)Nc1ccccn1)c1cccs1 (stereo not shown) | 3.223%
CC(C)(C)OC(=O)NC1CNNC1=O (stereo not shown) | 3.121%
CC(=O)N1CCC(NC(=O)OCC(F)(F)F)CC1 | 16.96%
O=C(c1ccco1)N1C[C@H](O)[C@@H](N2CCCCC2)C1 | -8.906%
CCCNC(=O)CNC(=O)Cn1nc(C)c(Cl)c1C | -3.229%
O=C(Cc1cccs1)NCC1CCCNC1 (stereo not shown) | 7.048%
CCN(Cc1cccc(F)c1)C(=O)CC1(N)CCC1 | -2.392%
NC1COc2ccccc21 (stereo not shown) | 7.454%
CC(Cn1cc(Br)cn1)NCCNC(=O)C(C)(C)C (stereo not shown) | 3.901%
Cc1cc(CN2CCn3ccnc3C2)no1 | -9.249%
Cc1ccc(-c2nnc(SCCC(N)=O)n2C)cc1 | -7.345%
CC(C)[C@@H]1CN(C(=O)c2ccc(O)cn2)C[C@H]1N(C)C | 10.57%
Cn1cc(N)c(C(F)(F)F)n1 | 8.566%
CCC(=O)Nc1ccc(Br)cn1 | 32.86%
CCC(C)(N)c1nc(=O)c2c([nH]1)CCC2 (stereo not shown) | -1.916%
O=C(C1CCC1)N1CCc2ccc(O)cc2C1 | 48.98%
CC(C)(C)OC(=O)N1CCN(CCS(N)(=O)=O)CC1 | 7.63%
O=C1CCC(C(=O)Nc2ccc3c(c2)CCC3)=NN1 | -2.09%
Cc1ccsc1CN(C)C(=O)c1ccccn1 | 35.33%
CC(C)(C#N)c1ccc(-c2cc(C(N)=O)ccn2)cc1 | 44.53%
COCCNc1ncnc2c1cnn2CCC#N | 26.06%
O=C1CN(Cc2ccc(F)c3cccnc23)CCN1 | 34.21%
CN(C)[C@H]1CN(Cc2cccc(OCCO)c2)C[C@@H]1O | -10.54%
Cc1cn(CCNC(=O)c2cc(CC(C)C)n[nH]2)nn1 | 12.21%
NC(=O)CN1CCCC1c1ccccc1 (stereo not shown) | 6.438%
Nc1cnccc1N1CCOCC1 | -10.6%
CCC(NC(=O)c1cccc(C(C)=O)c1)[C@H]1C[C@H](O)C1 (stereo partly shown) | 10.17%